From patent US8252774B2, “5-azaindole bisphosphonates” (Isis Innovation Ltd., priority 2008, dated 2012)

Assay: HAP affinity: chromatographic profiling on hydroxyapatite column (FPLC)
Type: physicochemical
Conditions: phosphate buffer gradient 1 mM up to 1000 mM, pH 6.8, determined in triplicate, longer retention = higher mineral affinity
Description: Mineral affinity for hydroxyapatite was evaluated by chromatographic profiling of the novel bisphosphonate compounds. Hydroxyapatite (HAP) ceramic spheres (20 μm diameter, BioRad) were packed in a 0.66×6.5 cm glass column (Omnifit®). The HAP columns were attached to a Waters 650E Advanced Protein Purification System (FPLC) (Millipore) in a running buffer of 1 mM KPO3 at pH 6.8. Each compound was prepared in 1 mM KPO3 buffer at pH 6.8 and 400 μmoles were injected into the FPLC system. The bisphosphonate compounds were eluted in a gradient of phosphate buffer, concentration increasing from 1 mM up to 1000 mM and detected by a Waters 484 UV absorbance detector (Millipore) at their optimum wavelength. […] Longer retention times (minutes) correspond with higher affinity to the HAP sphere and, correspondingly, higher mineral affinity.

NCCCC(O)(P(=O)(O)O)P(=O)(O)O [Alendronate]
Retention time: 17.5 min
